For some assays here: At least one result comes from cells or an extract, where the contact may be indirect.
Experiments:
[1] = molecular target: ICAM-1 (Homo sapiens) (UniProt P05362); assay: pull-down; settings: 2'-F pyrimidines; 1 uM RNA, 300 ug lysate (450 ug also in figure), streptavidin agarose, anti-ICAM-1 immunoblot; protein in a lysate after overexpression; label: 5'-biotin; variant of 10.T
[2] = molecular target: Human serum albumin (HSA) (Homo sapiens) (UniProt P02768); assay: ELONA; settings: 2'-F pyrimidines; Kd not calculable, no reaction with HSA up to 1000 nM; HSA coated at 25 nM; purified native protein; label: 5'-biotin; variant of 10.T

Protein sequences, listed by entry. Tags and fused reporters are not part of them. Residues count along the entry.
UniProt P05362, 28-532: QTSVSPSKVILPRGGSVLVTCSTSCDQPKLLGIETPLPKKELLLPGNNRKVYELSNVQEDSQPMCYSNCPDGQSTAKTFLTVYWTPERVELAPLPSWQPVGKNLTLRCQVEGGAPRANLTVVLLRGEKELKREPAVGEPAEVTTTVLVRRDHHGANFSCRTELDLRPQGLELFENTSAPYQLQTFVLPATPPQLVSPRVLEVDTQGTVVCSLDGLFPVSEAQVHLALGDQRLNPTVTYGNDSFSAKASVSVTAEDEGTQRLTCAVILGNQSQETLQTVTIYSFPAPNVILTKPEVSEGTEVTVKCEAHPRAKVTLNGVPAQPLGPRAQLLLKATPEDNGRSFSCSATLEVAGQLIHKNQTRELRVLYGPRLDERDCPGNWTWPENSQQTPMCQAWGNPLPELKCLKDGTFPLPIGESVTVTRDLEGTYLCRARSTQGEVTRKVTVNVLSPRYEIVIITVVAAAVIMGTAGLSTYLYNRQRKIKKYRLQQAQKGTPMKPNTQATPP

Sequence: UCAUGAUACGUUGCGUGAGCAACUGCGGCGCUAAAGUUUGGUUGACUAGUACAUG [biotinylated 10.T]
- binding result [1]: binds
- Kd [2]: > 1000 nM

Reference: US20210292762
